Compound in this assay: CN[C@@H]1C[C@H]2O[C@@](C)([C@@H]1OC)n1c3ccccc3c3c4c(c5c6ccccc6n2c5c31)C(=O)NC4 [staurosporine]
Nature of the assay: log2 fold change of tryptic peptide abundance, ligand vs vehicle (limited proteolysis) (log2 ratio); higher = more trypsin-susceptible (destabilized). The conditions noted are these: ligand concentration: 20 uM; sample: K562 cleared lysate; digestion: 4 min, 22 C (HT-PELSA RT4min, Orbitrap Astral).

Amino acid sequences for entries named in this document (tags omitted). A change or cut given only in a name is not applied to a line headed by its entry.
UniProt Q8WUJ0: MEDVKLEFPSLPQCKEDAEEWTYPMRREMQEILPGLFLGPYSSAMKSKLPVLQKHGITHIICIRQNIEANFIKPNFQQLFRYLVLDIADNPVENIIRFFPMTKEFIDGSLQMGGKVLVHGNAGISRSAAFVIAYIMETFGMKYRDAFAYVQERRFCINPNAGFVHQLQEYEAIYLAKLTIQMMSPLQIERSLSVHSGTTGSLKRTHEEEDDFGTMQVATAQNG
UniProt Q8TEA8: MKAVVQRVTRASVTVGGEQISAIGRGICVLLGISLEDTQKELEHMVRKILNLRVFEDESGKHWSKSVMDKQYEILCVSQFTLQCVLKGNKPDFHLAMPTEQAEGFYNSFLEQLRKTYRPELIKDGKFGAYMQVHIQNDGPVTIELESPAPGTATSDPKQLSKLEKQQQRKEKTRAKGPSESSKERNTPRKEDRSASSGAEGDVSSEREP
UniProt Q8TEA7: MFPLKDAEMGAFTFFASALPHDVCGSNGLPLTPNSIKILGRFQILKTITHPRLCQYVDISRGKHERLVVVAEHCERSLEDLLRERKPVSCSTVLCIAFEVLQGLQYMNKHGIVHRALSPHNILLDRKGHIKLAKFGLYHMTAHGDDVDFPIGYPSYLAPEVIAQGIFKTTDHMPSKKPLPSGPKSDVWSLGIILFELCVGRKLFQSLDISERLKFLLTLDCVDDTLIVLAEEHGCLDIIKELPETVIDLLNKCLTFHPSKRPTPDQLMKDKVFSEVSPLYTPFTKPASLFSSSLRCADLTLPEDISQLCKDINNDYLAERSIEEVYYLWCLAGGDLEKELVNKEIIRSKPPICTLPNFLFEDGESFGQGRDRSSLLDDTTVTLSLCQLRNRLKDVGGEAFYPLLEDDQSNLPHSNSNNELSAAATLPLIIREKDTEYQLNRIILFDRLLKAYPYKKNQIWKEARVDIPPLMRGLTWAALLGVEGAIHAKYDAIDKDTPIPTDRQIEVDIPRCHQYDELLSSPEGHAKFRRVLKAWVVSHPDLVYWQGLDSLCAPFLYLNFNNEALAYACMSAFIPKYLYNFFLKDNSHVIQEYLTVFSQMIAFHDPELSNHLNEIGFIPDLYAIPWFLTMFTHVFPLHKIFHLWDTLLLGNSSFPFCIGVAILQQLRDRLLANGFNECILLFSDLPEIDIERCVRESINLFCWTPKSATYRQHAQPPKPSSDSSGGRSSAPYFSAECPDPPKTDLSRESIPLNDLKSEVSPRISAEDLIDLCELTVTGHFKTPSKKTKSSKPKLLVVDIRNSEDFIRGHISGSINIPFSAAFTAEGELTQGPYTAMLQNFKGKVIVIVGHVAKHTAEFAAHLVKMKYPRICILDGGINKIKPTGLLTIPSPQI
UniProt Q8WYL5: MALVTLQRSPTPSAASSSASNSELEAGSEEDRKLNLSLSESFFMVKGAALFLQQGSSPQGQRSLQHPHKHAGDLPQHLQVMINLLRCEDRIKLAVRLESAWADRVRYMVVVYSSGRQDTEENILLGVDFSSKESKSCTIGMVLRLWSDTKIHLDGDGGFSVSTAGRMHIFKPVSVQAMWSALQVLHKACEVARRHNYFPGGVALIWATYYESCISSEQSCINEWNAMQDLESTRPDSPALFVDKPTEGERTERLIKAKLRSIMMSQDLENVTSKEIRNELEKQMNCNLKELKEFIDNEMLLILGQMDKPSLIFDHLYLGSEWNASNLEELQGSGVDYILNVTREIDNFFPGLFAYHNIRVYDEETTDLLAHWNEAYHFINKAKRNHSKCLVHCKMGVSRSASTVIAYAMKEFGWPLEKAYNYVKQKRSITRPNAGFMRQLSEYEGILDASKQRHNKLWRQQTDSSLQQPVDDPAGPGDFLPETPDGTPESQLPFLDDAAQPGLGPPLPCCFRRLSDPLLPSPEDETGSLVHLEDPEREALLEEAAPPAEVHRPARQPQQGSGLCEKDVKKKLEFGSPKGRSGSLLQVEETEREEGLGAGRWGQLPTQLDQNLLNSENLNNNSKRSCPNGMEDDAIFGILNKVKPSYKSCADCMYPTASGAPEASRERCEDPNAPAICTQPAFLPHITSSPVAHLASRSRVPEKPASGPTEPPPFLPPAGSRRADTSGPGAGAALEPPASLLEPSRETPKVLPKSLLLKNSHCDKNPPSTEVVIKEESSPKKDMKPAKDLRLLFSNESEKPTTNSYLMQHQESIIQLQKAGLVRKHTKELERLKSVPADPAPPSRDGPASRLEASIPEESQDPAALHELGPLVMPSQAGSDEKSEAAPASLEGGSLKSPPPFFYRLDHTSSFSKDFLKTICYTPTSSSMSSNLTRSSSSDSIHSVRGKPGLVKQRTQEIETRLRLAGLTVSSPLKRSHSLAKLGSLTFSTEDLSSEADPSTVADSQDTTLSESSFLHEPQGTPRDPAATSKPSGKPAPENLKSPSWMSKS
UniProt Q92540: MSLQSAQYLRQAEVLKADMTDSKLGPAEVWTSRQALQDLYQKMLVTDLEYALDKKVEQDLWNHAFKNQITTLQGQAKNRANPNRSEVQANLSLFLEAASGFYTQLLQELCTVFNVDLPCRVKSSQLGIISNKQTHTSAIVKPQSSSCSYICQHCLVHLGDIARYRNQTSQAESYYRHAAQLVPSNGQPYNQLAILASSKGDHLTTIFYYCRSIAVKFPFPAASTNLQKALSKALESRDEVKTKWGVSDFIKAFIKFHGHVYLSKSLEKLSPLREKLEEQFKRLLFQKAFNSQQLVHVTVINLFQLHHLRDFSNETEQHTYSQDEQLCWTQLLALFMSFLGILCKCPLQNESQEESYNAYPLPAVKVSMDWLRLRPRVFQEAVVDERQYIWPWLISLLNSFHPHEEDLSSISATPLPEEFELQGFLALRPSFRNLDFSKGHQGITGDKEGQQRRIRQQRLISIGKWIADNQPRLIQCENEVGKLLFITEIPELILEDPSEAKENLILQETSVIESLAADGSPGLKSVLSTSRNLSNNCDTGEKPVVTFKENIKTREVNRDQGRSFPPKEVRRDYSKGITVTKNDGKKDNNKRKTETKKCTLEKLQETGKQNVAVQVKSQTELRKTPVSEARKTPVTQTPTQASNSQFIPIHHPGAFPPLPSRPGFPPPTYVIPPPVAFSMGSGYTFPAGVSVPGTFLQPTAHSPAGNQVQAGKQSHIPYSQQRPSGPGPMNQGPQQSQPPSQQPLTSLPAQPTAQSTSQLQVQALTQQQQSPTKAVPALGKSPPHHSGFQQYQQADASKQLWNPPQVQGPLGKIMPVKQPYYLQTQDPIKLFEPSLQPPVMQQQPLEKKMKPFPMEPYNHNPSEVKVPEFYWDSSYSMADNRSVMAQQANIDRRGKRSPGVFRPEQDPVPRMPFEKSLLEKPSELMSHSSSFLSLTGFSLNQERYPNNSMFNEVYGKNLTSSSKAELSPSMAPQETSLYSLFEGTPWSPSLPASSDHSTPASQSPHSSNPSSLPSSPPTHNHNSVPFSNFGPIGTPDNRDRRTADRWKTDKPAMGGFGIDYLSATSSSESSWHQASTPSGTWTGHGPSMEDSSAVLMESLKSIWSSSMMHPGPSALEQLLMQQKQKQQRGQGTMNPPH
UniProt Q8WWH5: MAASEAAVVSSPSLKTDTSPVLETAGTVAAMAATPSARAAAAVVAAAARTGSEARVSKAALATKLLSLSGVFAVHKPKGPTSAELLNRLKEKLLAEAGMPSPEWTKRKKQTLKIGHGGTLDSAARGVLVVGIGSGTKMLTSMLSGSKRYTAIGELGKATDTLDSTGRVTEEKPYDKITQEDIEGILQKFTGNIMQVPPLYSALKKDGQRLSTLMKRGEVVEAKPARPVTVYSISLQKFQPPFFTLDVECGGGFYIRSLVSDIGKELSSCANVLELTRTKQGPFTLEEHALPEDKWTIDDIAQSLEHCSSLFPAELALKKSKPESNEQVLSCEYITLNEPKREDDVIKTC
UniProt Q8WVD5: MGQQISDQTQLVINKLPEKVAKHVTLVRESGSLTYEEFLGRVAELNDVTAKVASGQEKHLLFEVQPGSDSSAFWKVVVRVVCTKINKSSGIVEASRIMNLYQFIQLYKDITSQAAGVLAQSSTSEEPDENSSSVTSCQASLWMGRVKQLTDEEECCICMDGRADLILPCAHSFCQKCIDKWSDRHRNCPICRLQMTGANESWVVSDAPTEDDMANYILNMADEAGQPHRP
UniProt Q8TDR0: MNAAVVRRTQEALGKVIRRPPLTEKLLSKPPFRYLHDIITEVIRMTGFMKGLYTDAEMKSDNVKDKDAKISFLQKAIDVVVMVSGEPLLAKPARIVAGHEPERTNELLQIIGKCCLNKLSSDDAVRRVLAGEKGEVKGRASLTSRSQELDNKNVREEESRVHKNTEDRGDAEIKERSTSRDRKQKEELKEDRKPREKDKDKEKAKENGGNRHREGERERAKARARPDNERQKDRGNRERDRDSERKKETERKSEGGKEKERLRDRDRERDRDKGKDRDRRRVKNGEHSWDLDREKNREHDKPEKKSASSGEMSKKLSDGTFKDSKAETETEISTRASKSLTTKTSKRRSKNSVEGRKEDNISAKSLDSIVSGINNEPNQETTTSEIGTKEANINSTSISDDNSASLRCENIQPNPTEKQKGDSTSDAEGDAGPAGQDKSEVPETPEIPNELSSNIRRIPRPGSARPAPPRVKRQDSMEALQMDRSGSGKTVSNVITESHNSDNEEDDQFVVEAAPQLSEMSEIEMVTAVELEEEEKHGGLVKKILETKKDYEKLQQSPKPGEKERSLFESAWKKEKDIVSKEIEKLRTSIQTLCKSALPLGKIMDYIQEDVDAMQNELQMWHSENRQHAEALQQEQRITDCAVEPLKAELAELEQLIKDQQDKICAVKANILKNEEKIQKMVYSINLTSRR
UniProt Q8TED0: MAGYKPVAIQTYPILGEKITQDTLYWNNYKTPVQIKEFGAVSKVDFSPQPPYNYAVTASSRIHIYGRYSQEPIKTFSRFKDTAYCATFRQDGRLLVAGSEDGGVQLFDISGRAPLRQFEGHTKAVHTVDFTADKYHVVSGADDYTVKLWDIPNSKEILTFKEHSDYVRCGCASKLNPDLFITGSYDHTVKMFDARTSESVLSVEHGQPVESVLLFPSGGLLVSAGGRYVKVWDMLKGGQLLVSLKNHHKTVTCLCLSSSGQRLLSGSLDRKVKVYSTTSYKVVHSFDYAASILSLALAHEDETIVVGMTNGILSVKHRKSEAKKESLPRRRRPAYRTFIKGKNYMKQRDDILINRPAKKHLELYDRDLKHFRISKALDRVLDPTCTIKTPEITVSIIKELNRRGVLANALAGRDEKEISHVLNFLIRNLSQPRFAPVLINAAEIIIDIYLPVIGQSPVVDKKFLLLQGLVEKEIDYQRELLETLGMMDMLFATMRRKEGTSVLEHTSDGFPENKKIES
UniProt Q92797: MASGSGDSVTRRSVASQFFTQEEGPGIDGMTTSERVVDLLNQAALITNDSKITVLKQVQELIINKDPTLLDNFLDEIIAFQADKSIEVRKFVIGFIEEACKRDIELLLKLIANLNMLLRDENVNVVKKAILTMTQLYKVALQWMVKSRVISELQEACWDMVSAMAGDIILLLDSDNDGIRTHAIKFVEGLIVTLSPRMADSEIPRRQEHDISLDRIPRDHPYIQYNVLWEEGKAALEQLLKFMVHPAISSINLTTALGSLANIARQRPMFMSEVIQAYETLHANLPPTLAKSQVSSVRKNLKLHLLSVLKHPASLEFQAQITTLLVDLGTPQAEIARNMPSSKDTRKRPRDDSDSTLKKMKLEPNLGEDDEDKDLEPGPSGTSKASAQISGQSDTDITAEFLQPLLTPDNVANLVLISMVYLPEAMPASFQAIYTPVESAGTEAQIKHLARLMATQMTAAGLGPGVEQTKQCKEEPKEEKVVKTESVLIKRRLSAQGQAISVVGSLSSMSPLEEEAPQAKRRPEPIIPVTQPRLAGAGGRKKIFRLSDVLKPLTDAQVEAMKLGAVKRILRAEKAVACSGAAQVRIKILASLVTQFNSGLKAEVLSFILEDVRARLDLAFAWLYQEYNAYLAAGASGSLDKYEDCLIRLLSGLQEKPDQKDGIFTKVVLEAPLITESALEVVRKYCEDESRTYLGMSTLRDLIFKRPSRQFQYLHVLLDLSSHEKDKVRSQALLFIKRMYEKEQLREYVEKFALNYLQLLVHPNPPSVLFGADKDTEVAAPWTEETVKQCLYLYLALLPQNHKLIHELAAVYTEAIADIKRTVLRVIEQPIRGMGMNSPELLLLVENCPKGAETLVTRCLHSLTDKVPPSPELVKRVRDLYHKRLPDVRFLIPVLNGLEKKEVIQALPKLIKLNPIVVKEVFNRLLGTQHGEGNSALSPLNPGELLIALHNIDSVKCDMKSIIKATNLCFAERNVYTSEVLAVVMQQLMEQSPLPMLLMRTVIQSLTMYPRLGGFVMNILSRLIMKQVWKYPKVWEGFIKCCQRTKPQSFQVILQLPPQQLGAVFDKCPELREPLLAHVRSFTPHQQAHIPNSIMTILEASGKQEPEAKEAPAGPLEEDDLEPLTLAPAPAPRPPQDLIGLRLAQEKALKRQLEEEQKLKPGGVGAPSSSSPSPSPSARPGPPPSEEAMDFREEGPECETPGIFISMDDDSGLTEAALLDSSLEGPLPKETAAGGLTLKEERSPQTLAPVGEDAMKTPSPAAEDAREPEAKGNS

The other results are listed elsewhere or left out. Small differences around the control level are noise.

With “SNX19 (peptide sequence: KSLLESFLK, peptide start residue: 630) (UniProt Q92543)”, the log2 fold change was 0.0535.

Consider “STYX (peptide sequence: SLSVHSGTTGSLKR, peptide start residue: 191) (UniProt Q8WUJ0)”, for which the log2 fold change stood at 0.0847.

As to “DTD1 (peptide sequence: SASSGAEGDVSSER, peptide start residue: 194) (UniProt Q8TEA8)”, the log2 fold change was found to be 0.304.

As for “TBCK (peptide sequence: QHAQPPKPSSDSSGGR, peptide start residue: 712) (UniProt Q8TEA7)”, the log2 fold change was -0.271.

As for “UniProt Q8WYL5 (peptide sequence: DPAATSKPSGKPAPENLK, peptide start residue: 1024)”, the log2 fold change was -0.485.

On to “SMG7 (peptide sequence: GQGTMNPPH, peptide start residue: 1129) (UniProt Q92540)”, for which the log2 fold change is -0.834.

On to “WIPF2 (peptide sequence: HSSSAPPPPPPGR, peptide start residue: 172) (UniProt Q8TF74)”, for which the log2 fold change was 0.429.

On to “MAML1 (peptide sequence: HRQPPAATAPAPAAPAPR, peptide start residue: 74) (UniProt Q92585)”, for which the log2 fold change is -0.18.

With “SMAP2 (peptide sequence: LEPVVFEK, peptide start residue: 153) (UniProt Q8WU79)”, the log2 fold change is -0.139.

Consider “STAG1 (peptide sequence: LELFTNR, peptide start residue: 367) (UniProt Q8WVM7)”, for which the log2 fold change came to 0.299.

In the case of “BBX (peptide sequence: KFNSLPQYSPVTFDRK, peptide start residue: 696) (UniProt Q8WY36)”, the log2 fold change was 0.479.

Turning to “SPIRE2 (peptide sequence: AELDSLGHTDWAR, peptide start residue: 232) (UniProt Q8WWL2)”, the log2 fold change was 0.658.

Turning to “DHX38 (peptide sequence: AVTEDGKVDYR, peptide start residue: 490) (UniProt Q92620)”, the log2 fold change was found to be 0.519.

With “ABHD5 (peptide sequence: MHPDIPVSVIFGAR, peptide start residue: 284) (UniProt Q8WTS1)”, the log2 fold change was -0.371.

Turning to “WDR66 (peptide sequence: TPATPPTEK, peptide start residue: 552) (UniProt Q8TBY9)”, the log2 fold change was -0.148.

Consider “USP33 (peptide sequence: SRPGSVVPTTLFQGIK, peptide start residue: 243) (UniProt Q8TEY7)”, for which the log2 fold change amounted to 0.169.

For the target “UniProt Q8TEB1 (peptide sequence: GSFSLGEQSR, peptide start residue: 146)”, the log2 fold change was -0.361.

Regarding “PPIL4 (peptide sequence: AFFKMDNVLIDDR, peptide start residue: 297) (UniProt Q8WUA2)”, the log2 fold change amounted to 0.709.

For “UniProt Q8TBZ8 (peptide sequence: AFNYASSIR, peptide start residue: 485)”, the log2 fold change was determined as 0.257.

As to “PPM1E (peptide sequence: RRPQLYYETSIHAIK, peptide start residue: 224) (UniProt Q8WY54)”, the log2 fold change was 0.634.

Turning to “GEMIN6 (peptide sequence: EKLMHLFTSGDCK, peptide start residue: 80) (UniProt Q8WXD5)”, the log2 fold change was determined as 0.65.

In the case of “PTCD2 (peptide sequence: NFTLGEYK, peptide start residue: 124) (UniProt Q8WV60)”, the log2 fold change stood at 0.685.

For the target “TRUB1 (peptide sequence: GVLVVGIGSGTK, peptide start residue: 126) (UniProt Q8WWH5)”, the log2 fold change is -0.188.

Regarding “HDAC7 (peptide sequence: TVHPNSPGIPYR, peptide start residue: 104) (UniProt Q8WUI4)”, the log2 fold change amounted to 0.0892.

“RNF141 (peptide sequence: HLLFEVQPGSDSSAFWK, peptide start residue: 59) (UniProt Q8WVD5)”: the log2 fold change was -0.37.

For “TRAF3IP1 (peptide sequence: NTEDRGDAEIKER, peptide start residue: 164) (UniProt Q8TDR0)”, the log2 fold change was -0.811.

Take “UTP15 (peptide sequence: VLDPTCTIK, peptide start residue: 380) (UniProt Q8TED0)”: the log2 fold change is 0.192.

Consider “SMCR8 (peptide sequence: ANELASVEK, peptide start residue: 233) (UniProt Q8TEV9)”, for which the log2 fold change is -0.381.

For the target “FNIP1 (peptide sequence: TSTDSKDHCCMLEFSK, peptide start residue: 856) (UniProt Q8TF40)”, the log2 fold change was 0.415.

As to “BCL7C (peptide sequence: DPGGITAGSTDEPPMLTK, peptide start residue: 148) (UniProt Q8WUZ0)”, the log2 fold change amounted to 0.195.

Turning to “GTSF1 (peptide sequence: NHPDVASK, peptide start residue: 40) (UniProt Q8WW33)”, the log2 fold change was -0.181.

Regarding “EDEM1 (peptide sequence: FPLSFGFQR, peptide start residue: 37) (UniProt Q92611)”, the log2 fold change is -0.576.

Turning to “STON2 (peptide sequence: SQNSSISSTTGK, peptide start residue: 342) (UniProt Q8WXE9)”, the log2 fold change was -0.199.

As for “GTF2H4 (peptide sequence: NLQEFLGGLSPGVLDR, peptide start residue: 18) (UniProt Q92759)”, the log2 fold change amounted to 0.323.

For “FIG4 (peptide sequence: FVQLGQSQHKQDK, peptide start residue: 821) (UniProt Q92562)”, the log2 fold change was determined as 0.305.

Turning to “SYMPK (peptide sequence: LIHELAAVYTEAIADIKR, peptide start residue: 804) (UniProt Q92797)”, the log2 fold change is 0.275.

As for “DDX54 (peptide sequence: SRPAPSPESIKR, peptide start residue: 522) (UniProt Q8TDD1)”, the log2 fold change is 0.354.

Values taken from the supplement of paper PMC12819154, “High-throughput peptide-centric local stability assay extends protein–ligand identification to membrane proteins, tissues and bacteria” (Nature Structural & Molecular Biology, 2025).
